Laboratory results from US20110171215A1.
These are yes or no findings as the source states them, for the method shown. Some binding calls cover weakened binding; strength is not graded here.

The chains behind the UniProt entries cited, without tags or fusion partners. Where a name states a change or a piece, a line headed by the entry shows the natural chain unless it says otherwise. Residues count along the entry.
UniProt Q15116, residues 25-170: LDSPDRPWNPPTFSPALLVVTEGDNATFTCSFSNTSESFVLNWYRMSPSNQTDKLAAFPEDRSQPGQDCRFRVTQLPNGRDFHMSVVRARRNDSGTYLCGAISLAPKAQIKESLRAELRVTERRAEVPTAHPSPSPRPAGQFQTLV
UniProt P31041: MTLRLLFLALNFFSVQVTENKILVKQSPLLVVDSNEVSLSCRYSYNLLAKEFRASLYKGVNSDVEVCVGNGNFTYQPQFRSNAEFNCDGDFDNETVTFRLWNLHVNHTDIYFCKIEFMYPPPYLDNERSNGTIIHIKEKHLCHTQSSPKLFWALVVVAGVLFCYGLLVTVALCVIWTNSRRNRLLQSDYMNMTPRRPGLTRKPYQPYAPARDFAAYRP
UniProt P24161: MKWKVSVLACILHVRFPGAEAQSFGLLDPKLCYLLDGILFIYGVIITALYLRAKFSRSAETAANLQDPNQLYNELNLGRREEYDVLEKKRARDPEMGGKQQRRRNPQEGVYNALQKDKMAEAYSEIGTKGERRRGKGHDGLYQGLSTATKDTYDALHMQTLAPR

Columns and labels:
[1] = biological target: Monomeric soluble human PD-1 (human) (UniProt Q15116); experiment: SPR; antibody captured by rabbit anti-mouse Fc, soluble PD-1 injected to saturating levels
[2] = biological target: human PD-1 extracellular region / murine CD28 chimera, mutant V18R, on HEK-293T cells (human; mouse) (UniProt Q15116+P31041); experiment: flow cytometry on transfected HEK-293T cells
[3] = biological target: human PD-1 extracellular region / murine CD28 chimera, mutant R118D, on HEK-293T cells (human; mouse) (UniProt Q15116+P31041); experiment: flow cytometry on transfected HEK-293T cells
[4] = biological target: human PD-1 extracellular region / murine CD28 chimera, mutant L16R, on HEK-293T cells (human; mouse) (UniProt Q15116+P31041); experiment: flow cytometry on transfected HEK-293T cells
[5] = biological target: Monomeric soluble human PD-1 (human) (UniProt Q15116); experiment: SPR (FIG. 12)
[6] = biological target: hPD-1/mCD3ζWT/mCD28 chimera expressed in DO11.10 cells (human; mouse) (UniProt Q15116+P24161+P31041); experiment: told with the IL-2 release assay on DO11.10 cells carrying the chimera

Measured: binding

B1: Clone 2 anti-PD-1 antibody (antibody, V domains shown)
VH: QVQLQQPGAELVKPGASVKLSCKASGYTFTTYYLYWVRQRPGQGLEWIGGINPSNGGTNFNEKFKSKATLTVDKSSSTAYMQLNSLTSEDSAVYYCTRRDYRYDRGFDYWGQGTSVTV
VL: DIVLTQSPASLAVSLGQRATISCRASKSVSTSGFNYIHWYQQKPGQPPKLLIYLASNLESGVPARFSGSGSGTDFTLNIHPVEDEDAATYYCQHSRELPLTFGAGTKLEIK
binds: [1]

B2: Clone 10 anti-PD-1 antibody (antibody, IgG1, V domains shown)
VH: DVQLQESGPGLVKPSQSLSLTCTVTGYSITSDYAWNWIRQFPGNKLEWMGYINYSGSTSYNPSLKSRISITRDTSKNQFFLQLNSVTTEDTATYYCARWIGSSAWYFDVWGAGTTVTV
VL: DVLMTQTPLSLPVSLGDQASISCRSGQNIVHSNGNTYLEWYLQKPGQSPKLLIYKVSNRFFGVPDRISGSGSGTDFTLKISRVEAEDLGVYFCFQGSHVPFTFGSGTKLEIK
binds: [1] | [2] | [3] | [4] | [5]

B3: Clone 19 anti-PD-1 antibody (antibody, IgG1, V domains shown)
VH: QVQLQQSGAELVKPGASVKMSCKAFGYTFTTYPIEWMKQNHGKSLEWIGNFHPYNDDTKYNEKFKGKAKLTVEKSSTTVYLELSRLTSDDSAVYYCARENYGSHGGFVYWGQGTLVTV
VL: ENVLTQSPAIMSASPGEKVTMTCRASSSVISSYLHWYQQKSGASPKLWIYSTSNLASGVPDRFSGSGSGTSYSLTISSVEAEDAATYYCQQYNGYPLTFGAGTKLEIK
binds: [1] | [2] | [6]
